From paper doi:10.1101/2021.10.17.464745

By UniProt entry, the sequences of proteins in these tests, tags left out.
UniProt P01108: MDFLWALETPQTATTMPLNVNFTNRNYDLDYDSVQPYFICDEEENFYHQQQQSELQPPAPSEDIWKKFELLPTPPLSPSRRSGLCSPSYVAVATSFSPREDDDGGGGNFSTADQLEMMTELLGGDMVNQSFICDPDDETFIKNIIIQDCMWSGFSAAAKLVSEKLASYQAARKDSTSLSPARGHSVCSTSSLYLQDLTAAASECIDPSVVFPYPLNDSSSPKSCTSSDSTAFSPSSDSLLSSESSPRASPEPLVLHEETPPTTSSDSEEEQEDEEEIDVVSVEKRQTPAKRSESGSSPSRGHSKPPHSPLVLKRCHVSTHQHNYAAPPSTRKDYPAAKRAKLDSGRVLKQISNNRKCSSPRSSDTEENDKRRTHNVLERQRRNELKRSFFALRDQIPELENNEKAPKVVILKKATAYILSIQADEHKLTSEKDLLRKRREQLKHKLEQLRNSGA

Target: T1, phosphoglycerate dehydrogenase (Phgdh), mouse liver (mouse (endogenous in liver)) (UniProt Q61753)
T1 sequence: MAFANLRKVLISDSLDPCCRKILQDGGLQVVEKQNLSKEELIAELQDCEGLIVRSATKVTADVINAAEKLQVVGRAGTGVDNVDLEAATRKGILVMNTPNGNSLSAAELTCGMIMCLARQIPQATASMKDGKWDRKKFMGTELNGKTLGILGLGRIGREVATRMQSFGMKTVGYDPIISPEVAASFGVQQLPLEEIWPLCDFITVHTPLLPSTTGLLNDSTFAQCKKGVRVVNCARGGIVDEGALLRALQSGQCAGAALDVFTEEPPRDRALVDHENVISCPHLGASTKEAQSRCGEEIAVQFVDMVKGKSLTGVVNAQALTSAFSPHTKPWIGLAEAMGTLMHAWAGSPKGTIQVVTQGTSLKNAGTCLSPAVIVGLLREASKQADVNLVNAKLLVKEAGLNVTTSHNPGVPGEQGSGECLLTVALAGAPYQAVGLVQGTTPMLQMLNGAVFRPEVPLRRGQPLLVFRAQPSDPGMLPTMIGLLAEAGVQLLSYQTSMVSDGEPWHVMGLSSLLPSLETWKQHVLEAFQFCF
Test: affinity purification with mass spectrometry

cMyc, mouse liver (from UniProt P01108 1-454)
binding: binds

No constants are given. Whether binding was seen depends on the method and setting. Binding seen in cells or lysates may run through a third protein. Here binding means that the protein was enriched with, or labelled near, the bait; the list need not be complete.
